Assay results published in PubChem BioAssay AID1487 (National Center for Advancing Translational Sciences (NCATS), 2009).
Some of the results follow. Shown are side measurements of this screen, not its main read-out; they come without a call. The list favours compounds with an active or inconclusive main result. Words in brackets tell the shape of the fitted curve; partial curves, single points and poor fits give uncertain potencies.

Test: qHTS Assay for Modulators of Lamin A Splicing
Conditions: HeLa LMNA splicing GFP/RFP minigene ratio, 48 h
Outline: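 Read-out is the ratio of GFP to DsRed2 object intensity, acquired by 488 nm laser-scanning cytometry on HeLa lamin A-EGFP minigene reporter cells. Compound incubation 48 hrs at 37 °C in Opti-MEM with 2% FBS; DMSO 0.5% final.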

[1] = measured here: GFP splicing reporter channel
[2] = measured here: RFP viability control channel

| Structure (SMILES) | AC50 [1] | AC50 [2] |
| --- | --- | --- |
| COc1ccc(C2=NO[C@@H]3[C@@H]4C[C@@H]([C@H]5C(=O)N(C)C(=O)[C@@H]45)[C@H]23)cc1 | 35.5 µM [rising, single point] |  |
| CCOc1cc(Br)ccc1S(=O)(=O)N1CCC(C(N)=O)CC1 | 17.8 µM [rising, partial curve, poor fit] | 0.0562 µM [rising, partial curve, poor fit] |
| O=C(c1ccc(CS(=O)(=O)Cc2ccc(Cl)cc2)o1)N1CCCC1 |  | 12.6 µM [rising, single point] |
| C=CCNC(=O)c1onc(CSc2ccc(C)c(C)c2)c1C(=O)O | 2.51 µM [falling, single point] |  |
| COc1ccc(Cc2nnc(-c3cccc(C)c3)o2)cc1OC |  | 15.8 µM [rising, single point] |
| c1ccc2c(c1)OCC(c1csc3ncnc(N4CCCC4)c13)O2 (configuration not stated) | 35.5 µM [rising, single point] | 35.5 µM [rising, single point] |
| O=C(Nc1ccc(OC(F)(F)F)cc1)C1CCCN(S(=O)(=O)c2cccnc2)C1 (configuration not stated) | 11.2 µM [rising, single point] | 20 µM [rising, partial curve] |
| CCOC(=O)NC1(Nc2ccc(C)cc2)Oc2ccccc2O1 |  | 10 µM [rising, partial curve] |
| Cc1ccc(S(=O)(=O)Nc2ccccc2-c2ccccc2NS(=O)(=O)c2ccc(C)cc2)cc1 | 35.5 µM [falling, single point] | 35.5 µM [falling, single point] |
| O=C(CN1C(=O)NC(c2ccccc2)(c2ccccc2)C1=O)Nc1ccc2[nH]c(=O)[nH]c2c1 | 0.355 µM [rising, full curve] | 0.251 µM [rising, full curve, poor fit] |
| COc1ccc(CCNC(=O)CSc2cn(Cc3ccccc3)c3ccccc23)cc1OC |  | 25.1 µM [rising, single point] |
| COc1ccc(NS(=O)(=O)c2cc(NC(=O)CCSc3ccccc3)ccc2OC)cc1 |  | 1.41 µM [rising, partial curve, poor fit] |
| CC(=O)N1Cc2ccccc2C(C)CC12CCCC2 (configuration not stated) |  | 11.2 µM [rising, partial curve, poor fit] |
| COc1ccc(OC)c(CCNC(=O)CCCn2c(=O)c3cccn3c3ccccc32)c1 |  | 4.47 µM [rising, partial curve] |
| O=C(CNC(=O)c1cccc(F)c1)N/N=C/c1cc(Br)ccc1OC(=O)/C=C/c1ccco1 | 12.6 µM [rising, partial curve] | 15.8 µM [rising, partial curve] |
| CCOC(=O)c1sc(NC(=O)CSc2nnc(C)s2)c(C(=O)OCC)c1C |  | 22.4 µM [rising, single point] |
| Cc1ccc2c(c1)-c1cc(C)nn1C(c1sccc1C)N2 (configuration not stated) | 14.1 µM [rising, single point] | 11.2 µM [rising, single point] |
| O=C(COC(=O)C1CC2C=CC1C2)Nc1cccc(S(=O)(=O)N2CCCCCC2)c1 (configuration not stated) | 11.2 µM [rising, single point] | 35.5 µM [rising, single point] |

Three compounds drawn at random from the list so far, as already listed:

| Structure (SMILES) | AC50 [1] | AC50 [2] |
| --- | --- | --- |
| CCOC(=O)NC1(Nc2ccc(C)cc2)Oc2ccccc2O1 |  | 10 µM [rising, partial curve] |
| O=C(CNC(=O)c1cccc(F)c1)N/N=C/c1cc(Br)ccc1OC(=O)/C=C/c1ccco1 | 12.6 µM [rising, partial curve] | 15.8 µM [rising, partial curve] |
| COc1ccc(Cc2nnc(-c3cccc(C)c3)o2)cc1OC |  | 15.8 µM [rising, single point] |

Next results

| Structure (SMILES) | AC50 [1] | AC50 [2] |
| --- | --- | --- |
| CC(C)Oc1ccc(CNC(=O)CCCN2C(=O)c3cccnc3Oc3ccc(Cl)cc32)cc1 | 35.5 µM [falling, partial curve, poor fit] |  |
| O=C(CN1CCC(NC(=O)Cc2ccccc2)CC1)Nc1ccccc1Br | 35.5 µM [rising, single point] | 14.1 µM [rising, partial curve] |
| Cc1ccc(/C=C2/NC(=O)N(Cc3ccc(Br)cc3)C2=O)o1 | 15.8 µM [rising, single point] | 12.6 µM [rising, single point] |
| CCCCn1c2ccccc2c2nnc(SCC(=O)NC3=NN=C(c4ccccc4)CS3)nc21 |  | 35.5 µM [rising, single point] |
| O=C(NCc1ccccc1)[C@H]1C[C@@H]1[C@H](NP(=O)(c1ccccc1)c1ccccc1)c1ccccc1 | 0.01 µM [falling, full curve, poor fit] | 0.01 µM [falling, full curve, poor fit] |
| S=C1NCCNC(=S)NCCOCCOCCOCCN1 |  | 0.0224 µM [rising, full curve, poor fit] |
| CC(=O)Oc1c(C)cc(OCC(O)CNC(C)C)c(C)c1C (configuration not stated) | 11.2 µM [falling, partial curve, poor fit] |  |
| CCOC(=O)CSc1ncnc2c1nnn2-c1ccc(F)cc1 | 1.58 µM [falling, full curve] |  |
| CCC1(CC)C(=O)NC(=O)NC1=Nc1ccccc1 |  | 14.1 µM [falling, partial curve, poor fit] |
| Oc1c(C=Nc2cccc3cccnc23)sc2ccccc12 |  | 15.8 µM [rising, single point] |
| COc1cccc(NC(=O)c2ccccc2-c2nc(-c3cccc(C)c3)no2)c1 |  | 15.8 µM [rising, partial curve] |
| O=C(Nc1ccc(N2CCN(C(=O)c3ccco3)CC2)c(Cl)c1)c1c(F)c(F)c(F)c(F)c1F |  | 31.6 µM [rising, single point] |
| CC(C)c1ccccc1NC(=O)c1ccccc1NC(=O)C1CCCCC1 |  | 12.6 µM [rising, partial curve] |
| O=C(NCc1ccccc1)c1c[nH]c2ccc(S(=O)(=O)Nc3ccc4c(c3)OCCO4)cc2c1=O | 22.4 µM [rising, single point] | 22.4 µM [rising, single point] |
| COc1cccc(OC)c1C(=O)NNC(=O)c1cccc(COc2ccc3c(c2)CCC3)c1 |  | 22.4 µM [rising, single point] |
| COc1ccc(NC(=O)c2ccc(CN3CCN(c4ccccc4)CC3)cc2)cc1OC |  | 14.1 µM [rising, partial curve] |
| O=Cc1ccccc1OCCOc1ccccc1C=O | 35.5 µM [falling, single point] |  |
